In all, about 140,000 compounds went through this assay and about 4,300 (3.1%) were called active. This list was built around the results that the source calls inconclusive (neither active nor inactive); the mix of calls is not that of the screen.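 Rule for the calls: active = readout at or below -70, meaning at least 70% loss of cells showing the perinucleolar compartment, a nuclear body marking cancer cells; inconclusive = readout between -30 and a set limit; inactive = the rest.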
Test: High Content Assay for Compounds that inhibit the Assembly of the Perinucleolar Compartment;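 note: plate controls were DMSO wells for no effect and camptothecin positive control wells for full effect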
Details: PC3M PTB-GFP, PNC prevalence imaging, 16 h; at 10 µM; hits give low values
Procedure, shortened: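 Read-out is percentage of cells bearing a perinucleolar compartment, from automated 20x imaging of fixed, Hoechst-stained PC3M PTB-GFP cells. Cells were seeded 4 h, then exposed 16 h to compound (23 nl of library stock) in duplicate plates.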

Row | SMILES | activity change (PNC), negative = inhibition
1 | CSc1ccccc1N=CC1=C(O)CC(C)(C)CC1=O | active: -100%
2 | Clc1ccc(OCCn2c(-c3ccco3)nc3ccccc32)cc1 | inconclusive: -36%
3 | COC(=O)c1c(NC(=O)CN2C(=O)NC3(CCC(C(C)(C)C)CC3)C2=O)sc2c1CCCCC2 (stereo not given) | inconclusive: -57.6%
4 | Cc1cccc(Cn2nnc3c2C(=O)c2ccccc2C3=O)c1 | inactive: 26.3%
5 | Cc1nn(Cc2c(F)c(F)c(F)c(F)c2F)c(C)c1NC(=O)c1ccc(COc2cc(Cl)ccc2Cl)cc1 | inconclusive: -35.1%
6 | CCNC(=S)Nc1cc(C)ccn1 | inconclusive: -51.6%
7 | c1ccc(Cc2cc(-c3ccccc3)on2)cc1 | inconclusive: -33.3%
8 | CCn1c(=N)n(CC(O)c2ccco2)c2ccccc21 (stereo not given) | inconclusive: -50.4%
9 | O=C(Nc1ccccc1Cl)c1ccc(COc2ccc3c(c2)CCC3)cc1 | inconclusive: -50.8%
10 | CC[C@H](C)C(=O)O[C@H]1C[C@@H](C)C=C2C=C[C@H](C)[C@H](CC[C@@H]3C[C@@H](O)CC(=O)O3)[C@H]21 | inconclusive: -46.6%
11 | O=C(NCc1ccc2c(c1)OCO2)c1cccnc1 | inconclusive: -71.9%
12 | COC(=O)/C(=C1\Oc2ccc(C(C)(C)C)cc2S1)C(F)(F)F | inconclusive: -30.8%
13 | O=C(Cc1cccs1)NCc1ccc2c(c1)OCO2 | inconclusive: -46.2%
14 | Cc1ccc(Cn2c(CN(C)Cc3ccccc3)nc3c2c(=O)n(C)c(=O)n3C)cc1 | inactive: -10.9%
15 | Cc1onc(-c2c(Cl)cccc2Cl)c1C(=O)NCC1CCCO1 (stereo not given) | inconclusive: -57.6%
16 | COc1ccc(C(=O)N2CCC(C(=O)Nc3ccccc3OC)CC2)cc1 | active: -84.6%
17 | CCNC(=S)N/N=C/c1ccc(OCC(=O)Nc2ccc(OC)cc2)c(OC)c1 | inconclusive: -30.2%
18 | CC1(C)CC2(CC(C)(C)N1)OC(=O)N1CCc3ccccc3C12C (stereo not given) | inactive: -23.2%
19 | COc1ccc(-c2nc(N)n(C(C)=O)n2)cc1 | inactive: 21.4%
20 | COc1ccc(C2=NN(c3nc(-c4ccccc4)c(CC(=O)O)s3)C(c3ccco3)C2)cc1 (stereo not given) | inconclusive: -53.1%
21 | Cc1ccc(S(=O)(=O)c2ccc(Cl)cc2)cc1S(=O)(=O)N(C)CC(=O)O | inactive: -15.5%
22 | CCCNC(=O)CN(c1cccc(F)c1)S(C)(=O)=O | inactive: 41.2%
23 | Cc1nc2ccc(F)cc2cc1C(=O)Nc1cccc(Cl)c1C | inconclusive: -48.3%
24 | O=c1cc(CNc2cc(Cl)ccc2Cl)nc2sccn12 | active: -113%
25 | OCCN(Cc1ccccc1)Cc1ccc(C(F)(F)F)cc1 | inconclusive: -41.9%

3 structures out of the list, sorted by heavy-atom count, rising.
Row | SMILES | activity change (PNC), negative = inhibition
8 | CCn1c(=N)n(CC(O)c2ccco2)c2ccccc21 (stereo not given) | inconclusive: -50.4%
25 | OCCN(Cc1ccccc1)Cc1ccc(C(F)(F)F)cc1 | inconclusive: -41.9%
14 | Cc1ccc(Cn2c(CN(C)Cc3ccccc3)nc3c2c(=O)n(C)c(=O)n3C)cc1 | inactive: -10.9%
